Assay results reported in paper PMC5348344.
Results are given in words; binding and its absence hold for the method and conditions named. Binding seen in cells or lysates may run through a third protein. Some entries that bind do so weakly or less than the wild type. Tags and fused reporters may be left off the sequences shown.

Sequences of proteins named here, by UniProt entry; tags and fusion partners are left off.
UniProt Q04206: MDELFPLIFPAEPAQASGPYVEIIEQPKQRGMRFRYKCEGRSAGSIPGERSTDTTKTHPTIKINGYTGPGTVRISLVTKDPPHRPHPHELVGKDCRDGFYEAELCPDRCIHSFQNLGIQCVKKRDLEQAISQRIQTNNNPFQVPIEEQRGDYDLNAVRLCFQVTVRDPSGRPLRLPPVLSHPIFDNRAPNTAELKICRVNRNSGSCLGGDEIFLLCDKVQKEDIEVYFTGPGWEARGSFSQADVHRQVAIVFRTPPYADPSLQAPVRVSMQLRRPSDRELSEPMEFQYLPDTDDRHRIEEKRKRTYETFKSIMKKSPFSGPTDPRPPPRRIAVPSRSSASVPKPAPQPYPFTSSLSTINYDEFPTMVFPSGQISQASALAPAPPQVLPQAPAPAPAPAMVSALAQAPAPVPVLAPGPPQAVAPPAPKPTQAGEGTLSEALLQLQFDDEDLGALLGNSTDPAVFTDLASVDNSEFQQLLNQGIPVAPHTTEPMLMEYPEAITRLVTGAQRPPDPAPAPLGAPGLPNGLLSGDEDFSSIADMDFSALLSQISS

Target: T1, O-linked N-acetylglucosamine (O-GlcNAc) transferase (human (endogenous in OCI-LY10 and MS)) (UniProt O15294)
T1 sequence: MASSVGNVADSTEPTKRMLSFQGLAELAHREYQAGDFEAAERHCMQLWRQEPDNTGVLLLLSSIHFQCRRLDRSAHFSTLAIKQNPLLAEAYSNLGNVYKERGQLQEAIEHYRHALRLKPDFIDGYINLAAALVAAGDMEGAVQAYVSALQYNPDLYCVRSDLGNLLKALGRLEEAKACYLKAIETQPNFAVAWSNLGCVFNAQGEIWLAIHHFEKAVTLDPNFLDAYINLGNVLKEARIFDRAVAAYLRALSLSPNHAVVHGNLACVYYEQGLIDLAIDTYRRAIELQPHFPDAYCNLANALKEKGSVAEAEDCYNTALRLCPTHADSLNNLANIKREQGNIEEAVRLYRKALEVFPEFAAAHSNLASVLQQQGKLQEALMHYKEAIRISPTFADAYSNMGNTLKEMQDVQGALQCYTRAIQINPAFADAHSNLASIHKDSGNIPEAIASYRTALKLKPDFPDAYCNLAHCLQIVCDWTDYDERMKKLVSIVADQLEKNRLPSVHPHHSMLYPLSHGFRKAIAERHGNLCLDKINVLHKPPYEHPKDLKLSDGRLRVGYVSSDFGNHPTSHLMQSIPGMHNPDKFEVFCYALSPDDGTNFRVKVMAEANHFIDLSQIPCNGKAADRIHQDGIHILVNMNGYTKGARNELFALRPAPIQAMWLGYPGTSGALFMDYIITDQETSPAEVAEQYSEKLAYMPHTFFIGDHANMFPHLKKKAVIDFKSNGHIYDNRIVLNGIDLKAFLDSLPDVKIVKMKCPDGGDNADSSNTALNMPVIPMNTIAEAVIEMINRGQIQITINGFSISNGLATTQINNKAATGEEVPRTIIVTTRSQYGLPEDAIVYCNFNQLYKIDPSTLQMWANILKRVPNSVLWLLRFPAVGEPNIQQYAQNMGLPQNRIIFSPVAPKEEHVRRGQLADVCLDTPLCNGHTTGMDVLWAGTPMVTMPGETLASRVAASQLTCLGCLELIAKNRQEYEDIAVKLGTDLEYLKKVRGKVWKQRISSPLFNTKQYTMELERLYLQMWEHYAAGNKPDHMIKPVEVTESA
Test: co-IP; anti-OGT antibody crosslinked to Dynabeads Protein A; lysates of OCI-LY10 and MS cells pre-cleared with IgG Dynabeads, incubated overnight at 4°C; washed five times with Tris-HCl pH 7.8 10 mM, EDTA 1 mM, NaCl 150 mM, NaF 1 mM, 0.5% Nonidet P-40, 0.5% glucopyranoside; Western blot

| Molecule | binding |
| --- | --- |
| nuclear factor kappa B (NF-κB)-p65 (from UniProt Q04206 1-551) | binds |
| nuclear factor of activated T-cells 1 (protein, UniProt O95644 1-943) MPSTSFPVPSKFPLGPAAAVFGRGETLGPAPRAGGTMKSAEEEHYGYASSNVSPALPLPTAHSTLPAPCHNLQTSTPGIIPPADHPSGYGAALDGGPAGYFLSSGHTRPDGAPALESPRIEITSCLGLYHNNNQFFHDVEVEDVLPSSKRSPSTATLSLPSLEAYRDPSCLSPASSLSSRSCNSEASSYESNYSYPYASPQTSPWQSPCVSPKTTDPEEGFPRGLGACTLLGSPRHSPSTSPRASVTEESWLGARSSRPASPCNKRKYSLNGRQPPYSPHHSPTPSPHGSPRVSVTDDSWLGNTTQYTSSAIVAAINALTTDSSLDLGDGVPVKSRKTTLEQPPSVALKVEPVGEDLGSPPPPADFAPEDYSSFQHIRKGGFCDQYLAVPQHPYQWAKPKPLSPTSYMSPTLPALDWQLPSHSGPYELRIEVQPKSHHRAHYETEGSRGAVKASAGGHPIVQLHGYLENEPLMLQLFIGTADDRLLRPHAFYQVHRITGKTVSTTSHEAILSNTKVLEIPLLPENSMRAVIDCAGILKLRNSDIELRKGETDIGRKNTRVRLVFRVHVPQPSGRTLSLQVASNPIECSQRSAQELPLVEKQSTDSYPVVGGKKMVLSGHNFLQDSKVIFVEKAPDGHHVWEMEAKTDRDLCKPNSLVVEIPPFRNQRITSPVHVSFYVCNGKRKRSQYQRFTYLPANVPIIKTEPTDDYEPAPTCGPVSQGLSPLPRPYYSQQLAMPPDPSSCLVAGFPPCPQRSTLMPAAPGVSPKLHDLSPAAYTKGVASPGHCHLGLPQPAGEAPAVQDVPRPVATHPGSPGQPPPALLPQQVSAPPSSSCPPGLEHSLCPSSPSPPLPPATQEPTCLQPCSPACPPATGRPQHLPSTVRRDESPTAGPRLLPEVHEDGSPNLAPIPVTVKREPEELDQLYLDDVNEIIRNDLSSTSTHS | binds |
